Values quoted from earlier work as cited in patent US11124475B2, “Hydrogen sulfide donor in organic salt form and preparation method therefor” (CHENGDU KAOENSI SCIENCE AND TECHNOLOGY CO., LTD., priority 2017, dated 2021).
At least one structure is not confirmed: it was looked up by name or label, or the drawing left a doubt.

Structure (SMILES): S [Example H2S, hydrogen sulfide]
- H2S can dissolve in 100 mL water (in 100 mL water at 10° C.): 0.5 g
- H2S can dissolve in 100 ml water (in 100 ml water at 20° C., pH value of the solution 4.5): 0.3 g
